Like-named read-outs stand apart in the source and are kept apart here. No constants are given. Whether binding was seen depends on the method and setting. In cells and extracts the contact can be indirect. Some results given as binding are weak or reduced against the parent protein; the word gives no strength. Each block holds one molecule with its values, some of them ahead of it.
What was measured:
[1] = molecular target: Zbtb7b (mouse (endogenous in bone marrow cells)) (UniProt Q64321); assay: co-IP
[2] = molecular target: Zbtb7b (mouse (endogenous in bone marrow cells)) (UniProt Q64321); assay: co-IP; remark: listed apart in the source

By UniProt entry, the sequences of proteins in these tests, tags left out. Where a name states a change or a piece, a line headed by the entry shows the natural chain unless it says otherwise.
UniProt Q64321, whole entry: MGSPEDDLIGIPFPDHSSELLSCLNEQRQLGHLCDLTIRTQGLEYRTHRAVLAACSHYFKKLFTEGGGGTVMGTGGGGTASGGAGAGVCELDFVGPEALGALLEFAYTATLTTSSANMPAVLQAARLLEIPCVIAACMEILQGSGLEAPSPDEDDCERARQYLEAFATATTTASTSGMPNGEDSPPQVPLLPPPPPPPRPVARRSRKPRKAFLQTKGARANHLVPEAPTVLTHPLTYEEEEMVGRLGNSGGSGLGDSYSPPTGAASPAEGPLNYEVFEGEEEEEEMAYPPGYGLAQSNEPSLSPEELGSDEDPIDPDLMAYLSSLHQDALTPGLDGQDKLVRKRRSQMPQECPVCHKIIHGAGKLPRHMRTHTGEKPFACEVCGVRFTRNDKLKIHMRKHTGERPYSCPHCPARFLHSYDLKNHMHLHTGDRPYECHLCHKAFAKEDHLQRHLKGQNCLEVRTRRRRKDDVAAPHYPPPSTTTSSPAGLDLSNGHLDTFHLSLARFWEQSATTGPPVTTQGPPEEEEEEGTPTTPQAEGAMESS
UniProt P53566, whole entry: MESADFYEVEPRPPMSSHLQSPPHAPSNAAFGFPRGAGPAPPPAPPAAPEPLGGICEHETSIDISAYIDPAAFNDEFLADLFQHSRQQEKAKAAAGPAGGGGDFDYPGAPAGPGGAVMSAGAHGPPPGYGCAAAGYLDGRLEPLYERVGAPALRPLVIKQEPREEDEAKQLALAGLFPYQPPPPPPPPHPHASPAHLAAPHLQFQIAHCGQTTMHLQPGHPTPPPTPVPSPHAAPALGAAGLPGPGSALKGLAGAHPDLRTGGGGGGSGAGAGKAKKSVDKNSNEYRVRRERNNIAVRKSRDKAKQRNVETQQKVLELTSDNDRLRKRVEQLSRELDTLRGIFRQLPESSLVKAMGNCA
UniProt P28033, whole entry: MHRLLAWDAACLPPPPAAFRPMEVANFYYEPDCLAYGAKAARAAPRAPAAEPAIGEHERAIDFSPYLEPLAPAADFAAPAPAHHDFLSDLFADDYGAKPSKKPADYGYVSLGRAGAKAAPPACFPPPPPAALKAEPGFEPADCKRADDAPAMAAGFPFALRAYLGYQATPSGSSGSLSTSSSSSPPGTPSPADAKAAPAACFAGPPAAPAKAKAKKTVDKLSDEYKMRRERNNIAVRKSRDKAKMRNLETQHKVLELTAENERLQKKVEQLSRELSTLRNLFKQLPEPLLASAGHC

- binding [1]: binds
B1: Cebpε (protein, UniProt Q6PZD9 1-281)
chain: MSHGTYYECEPRGGQQPLEFSGGRAGPGELGDMCEHEASIDLSAYIESGEEQLLSDLFAMKPTPEARSLKGPGAPSFPHYLPADPRPFAYPSHTFGPDRKALGPGIYSNPGSYDPRAVAVKEEPRGPEGNRGTSRGSYNPLQYQVAHCGQTAVHLPPTLAAPGQPLRVLKAPVAAAAPPCSPLLKAPSPAGPSHKGKKAVNKDSLEYRLRRERNNIAVRKSRDKAKRRIMETQQKVLEYMAENERLRNRVDQLTQELDTLRNLFRQIPEAASLIKGVGGCS

- binding [1]: binds
B2: Cebpδ (protein, UniProt Q00322 1-268)
chain: MSAALFSLDSPVRGTPWPTEPAAFYEPGRVDKPGRGPEPGDLGELGSTTPAMYDDESAIDFSAYIDSMAAVPTLELCHDELFADLFNSNHKAAGAGGLELLQGGPTRPPGVGSVARGPLKREPDWGDGDAPGSLLPAQVAVCAQTVVSLAAAAQPTPPTSPEPPRGSPGPSLAPGTVREKGAGKRGPDRGSPEYRQRRERNNIAVRKSRDKAKRRNQEMQQKLVELSAENEKLHQRVEQLTRDLAGLRQFFKKLPSPPFLPPTGADCR

- binding [1]: no binding
B3: Xbp1 (protein, UniProt O35426 1-267)
chain: MVVVAAAPSAATAAPKVLLLSGQPASGGRALPLMVPGPRAAGSEASGTPQARKRQRLTHLSPEEKALRRKLKNRVAAQTARDRKKARMSELEQQVVDLEEENHKLQLENQLLREKTHGLVVENQELRTRLGMDTLDPDEVPEVEAKGSGVRLVAGSAESAALRLCAPLQQVQAQLSPPQNIFPWTLTLLPLQILSLISFWAFWTSWTLSCFSNVLPQSLLVWRNSQRSTQKDLVPYQPPFLCQWGPHQPSWKPLMNSFVLTMYTPSL

The next lines start with the molecule.

Molecule: Cebpα (from UniProt P53566 1-359)
- binding [1]: no binding

Molecule: Cebpβ (from UniProt P28033 1-296)
- binding [1]: binds
- binding [2]: binds

Source: doi:10.1101/2025.06.16.659412
